Measured values: article PMC8880864

Target: T1, SpbK (full length) (B. subtilis (ICEBs1)) (UniProt P96648)
T1 sequence: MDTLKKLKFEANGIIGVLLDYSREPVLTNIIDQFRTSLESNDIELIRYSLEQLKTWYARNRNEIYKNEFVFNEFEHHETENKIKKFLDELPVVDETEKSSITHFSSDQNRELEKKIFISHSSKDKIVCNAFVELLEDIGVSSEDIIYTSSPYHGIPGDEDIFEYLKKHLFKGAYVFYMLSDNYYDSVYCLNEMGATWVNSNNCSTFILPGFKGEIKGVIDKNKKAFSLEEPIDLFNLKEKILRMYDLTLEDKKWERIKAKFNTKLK
Experiment: two-hybrid; GAL4 activation domain (pGAD-C1) and GAL4 DNA binding domain (pGBDU-C3) fusions in S. cerevisiae PJ69-4A; spotted on SD medium, scored for growth in the absence of adenine, 30 °C

YonE (phage SPß of B. subtilis)
binding: no binding

These are yes or no findings as the source states them, for the method shown.
